106 sequences from PubChem BioAssay AID1508600 (Functional Genomics Laboratory (NCATS/FGL), 2020) can be followed below.

Hit rate of the full screen: of about 53,000 sequences, about 3,700 (7%) were called active.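 Rule for the calls: active = gene knockdowns whose robust z-score for IL-1 alpha signal is at least 2 or at most -2, so actives lie on both sides; inactive = the rest.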 Some of the results follow.

The nature of the assay: Components of the Cytosolic LPS Sensing Pathway: Gene Identification via Genome-wide siRNA Screen.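 Note: robust z of the log signal after scaling to non-targeting control siRNA wells of the plate.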 The note with it: RAW264.7 macrophages, IL-1a HTRF, actives lie on both sides, screened at 100 nM (by protocol), cells primed 5 h with Pam3CSK4 first. Summed up: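 RAW264.7 mouse macrophages reverse-transfected with single siRNAs (100 nM final) for 48h, primed with Pam3CSK4 for 5 hours, then transfected with LipidA for 24 hour. Supernatant IL-1a read by HTRF; values normalized to negative-control median, log-transformed robust z-scores.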
(In TR-FRET formats the signal depends on donor and acceptor labels being close together.)
GGCAUUUAAUAUCAGGUCATT against Zfp62: the z-score was inactive: 0.167.

Regarding CCCAAUGAACAAGCUUAAGTT against Eif3g, the z-score is inactive: -1.19.

For the sequence CCUCACUCCUUUCUGUAAATT against Mfsd4b5, the z-score is inactive: -0.61.

Turning to GCGUGAAAAUGGAUAUCUUTT against Stab1, the z-score was inactive: -0.141.

Consider GGAAAAGAUGCCUGUAUUUTT against Sgcd, for which the z-score was inactive: -0.422.

Take GGCAUCACGUCAGAGUACATT against Pea15b: the z-score is inactive: -1.27.

Take GCCUUUGAGCUCAUCUAUATT against Ttll3: the z-score was inactive: 0.149.

GGGAACAAGACAACACAGCTT against Adam11: the z-score is active: 2.03.

Regarding GGACUAUGACCCAUAUAGUTT against Zc3h8, the z-score was inactive: 0.538.

Take GGAUGUUAAUGGAUUCACATT against Ptprt: the z-score was inactive: -1.86.

Consider GGACAUUAUCAAGUUUCUGTT against Fkbp3, for which the z-score was inactive: 0.525.

For the sequence CCAAGACUGUGACAAGUUUTT against Ctsz, the z-score was inactive: -0.557.

As to CCUCCUCCAAUUAAAGACATT against Med7, the z-score is inactive: -0.0133.

As for GGAAACGGUGCGACUUCAATT against Fam13c, the z-score was inactive: -0.585.

For the sequence GGCCUGAGGACAUUGAAUATT against Naa20, the z-score was inactive: 1.18.

For the sequence CGAGCAUGCUAAAUAUAUUTT against Zfp516, the z-score is inactive: -0.247.

Regarding GGAAGCUGUAGAAACACAUTT against Nbn, the z-score is inactive: 0.42.

For the sequence GGCCCAUUGAUCUGUGAUATT against Klk1b8, the z-score was inactive: -0.526.

As to GCACUGAUGUAAGGUAACCTT against Prdm4, the z-score is active: 2.48.

Turning to GCCUUAAGUGGAUUUAGGATT against H2ac8, the z-score was inactive: 1.79.

On to GGGAUUUAGCACAAGAUACTT against Brinp3, for which the z-score was inactive: 0.606.

For the sequence GGACGUGCUGUAUUUCAAGTT against Gal3st1, the z-score was inactive: 0.162.

For the sequence CCUUCAUUAACAGACUACUTT against Pias2, the z-score was inactive: -0.101.

Take CGUCUAUCUUGGAUUACUATT against Dll1: the z-score was active: 2.11.

As for GGAUAUUCUGGACCACUGATT against Myoz2, the z-score is inactive: -0.288.

With GGCUGAAAAUGGGAAGCUUTT against Gm5069, the z-score is inactive: 0.0536.

As for GAGAGAUUGGUAUUCCUGCTT against Olfr578, the z-score was inactive: 0.516.

Regarding GGUACUAGAUUGGAUGUCATT against Slc39a14, the z-score was inactive: -0.363.

In the case of GGUGUCUUUUUUCCUCUUCTT against Adcy4, the z-score is inactive: 1.81.

On to GCUUACAUGCACUAGCCUGTT against Ric8a, for which the z-score was inactive: 0.954.

In the case of GGAGAUCUCCAUCACACACTT against Rps6ka1, the z-score is inactive: 0.396.

On to GGAGACCACGUCCAACAAUTT against Sh3bp2, for which the z-score is inactive: -0.352.

As for GCGUGAUUUUCCCUUGAGGTT against Cyp3a16, the z-score was inactive: 0.0801.

Take GGAGAUGGCUUUGAUGCUGTT against Gnmt: the z-score was inactive: 0.781.

On to GGUUUAUGAGUAACUGUCATT against Defb10, for which the z-score is inactive: -0.962.

For CCGUCAUUGUCUUGGAAGCTT against Syt5, the z-score was inactive: -0.0794.

For the sequence GCCAGCAAAAGACACAAUATT against Rspo2, the z-score was inactive: 1.04.

In the case of GCGAAGGCUAGAUGUAGUGTT against Emilin1, the z-score was inactive: -1.65.

Regarding GCUUGCUAAGAUUGAGUAUTT against Cerkl, the z-score is inactive: -0.928.

As for CCCUAUGCAGGGCUCAAUATT against Ankk1, the z-score was inactive: -1.68.

GGCCUUUCAAGGAACCAAGTT against Psme3: the z-score is inactive: 0.561.

Consider CCACGGAUACUUUGAACAUTT against Tmem86a, for which the z-score was inactive: 0.701.

Regarding GGGUCCACAUACAAUAAAGTT against Emc9, the z-score was inactive: 0.226.

In the case of CCCUAUUUGACAAAUUCCUTT against Cdo1, the z-score was inactive: 0.245.

Turning to CCACCAUGCUUCUAAGCCUTT against Ccdc63, the z-score was inactive: -1.61.

For CCGAAUGUUUUCCCACCUGTT against Lgi2, the z-score was inactive: -0.169.

On to GGAGCUCUUGGAUAUAAAATT against Eif4enif1, for which the z-score is inactive: 0.223.

In the case of GAAAAUGGUCACUACUGAGTT against S100a8, the z-score is inactive: -0.0863.

In the case of CCCUAACAGAUCUCAUUGATT against Sh2d4b, the z-score was inactive: 0.0921.

Turning to ACGAGGGCCUGAAAAACCUTT against Hbb-b2, the z-score was inactive: -0.933.

In the case of CGCACAGUACUUUUCUCCUTT against Rtn1, the z-score is inactive: -0.343.

As for GCUCUAUCGUCCAAGCUUUTT against Dazap2, the z-score was inactive: -0.117.

For CCUACUCGUGUCGUGAUAATT against Rxrb, the z-score is inactive: -0.841.

For the sequence GGCCCUAUGAUGAACCUAATT against Calb2, the z-score is inactive: -0.231.

For GCUGCUUUUUCAUUGUCACTT against Hcrtr1, the z-score is inactive: -0.778.

For the sequence GCUCCUGUAGACAGGUUAGTT against Serac1, the z-score is inactive: -1.39.

With GCCCAGCAAAACGAAAUACTT against Foxc2, the z-score is inactive: -0.751.

As for GGAGCUGAGCAACAUCACATT against Il13, the z-score was inactive: -1.35.

On to GGCGAAUUACUUGUGUUGUTT against Nectin3, for which the z-score was inactive: -0.306.

In the case of GCUCAGAGAACCUUAUAAGTT against Cyp4f15, the z-score is inactive: -0.346.

On to GGAGGACUAGUUGUGACUUTT against Aldh1a1, for which the z-score is inactive: -0.384.

GGUCAUAGCUGGAUUCCUUTT against Olfr1453: the z-score was inactive: -1.47.

As for GCACCUUCCAUCGGAAUGCTT against Tyw5, the z-score is inactive: -0.269.

With GGAGUUGCAUCACUUGCUCTT against BC016579, the z-score is inactive: 0.441.

For GACUGAACAGAUCUACUCUTT against Klra7, the z-score is inactive: -0.413.

For the sequence GGAAAUGAAGCCAUGUUAATT against Arhgef6, the z-score is inactive: -0.55.

Take GCAUCGUCUGUGAAAUAUGTT against Map3k7: the z-score is inactive: 0.214.

As to GGAAAUCAUCUAUUCGGACTT against Klrc1, the z-score is active: 2.62.

For GGAUAUAAAGUGGCUCUGGTT against Ica1l, the z-score is inactive: -0.635.

Take CCGUAUAAGAAGCUUUGUUTT against Dennd4a: the z-score is inactive: 1.17.

In the case of GGAACAAGAGAUUGAGCAUTT against Ccdc50, the z-score is inactive: 0.855.

As for GGAUUCUCACAAGUAAUUCTT against Ifi203, the z-score is inactive: 0.272.

On to “GGCCCUUUUAAAUAACUACTT against 1110004F10Rik”, for which the z-score is inactive: 1.1.

With GGAGAAGGAUCUGAACGAGTT against Nog, the z-score is inactive: -1.24.

Regarding GGGAGACUUGUCAUGCACATT against Slc45a2, the z-score is inactive: 0.728.

On to GGAUCACCAAAAAUAGAUATT against Rsrp1, for which the z-score was inactive: -0.446.

In the case of CCAAUUCCUCUCAAUGUCATT against Gpatch11, the z-score was inactive: -1.78.

With GGAUUUGUCAAACAACACATT against Ostm1, the z-score is inactive: -0.633.

As to GGUUUGGUUUUCAUUGUUATT against Nhlrc2, the z-score was inactive: -0.157.

In the case of CCGAUGACAAUCGGCCCUUTT against Gja8, the z-score was inactive: 0.74.

For the sequence “GGCAAUUUUUCAAGGCUUATT against D130007C19Rik”, the z-score is inactive: 0.628.

On to GGCUGGAUGGCAUCUUUCUTT against Ttc22, for which the z-score is inactive: -0.28.

With CCCAGGGUACCUCACAUCUTT against Nrp1, the z-score is inactive: -0.595.

Turning to GGACUAAUCCCAUUUUCUUTT against Zfp422, the z-score is inactive: -0.292.

Consider GGGUCCUACAGAAGGAACUTT against Mea1, for which the z-score was inactive: -0.208.

Regarding GGAUCUUGAUAGACUGAUGTT against Rhox5, the z-score was inactive: 0.362.

Turning to GGCCUAGGGAAAGCUAUGGTT against Nat8f3, the z-score was active: -2.57.

In the case of GGUCUACCAUGACACACGUTT against Prrg2, the z-score is inactive: 0.519.

For the sequence GGAAUUCCUUCACAUCUGGTT against Tc2n, the z-score is inactive: 0.4.

In the case of GGAGAUCGUUGUCCAACUCTT against Trpc2, the z-score was inactive: 0.0108.

As to GGAACUCACUCGACAGAAGTT against Ciao2a, the z-score is inactive: 0.882.

As to GGGACAGGACAGUUAGAUGTT against Msc, the z-score is inactive: -0.301.

For GGGCCUAGUCAAAAUGUUGTT against Fbxo7, the z-score is inactive: -0.196.

As for GGAGAAGAAGAACAGGACATT against Rnf186, the z-score is active: 2.35.

As to GAUUUCUUUGUGUCAUUGATT against Vmn1r35, the z-score is inactive: 0.495.

For the sequence “GCGGAGAGAAAGAGCUGAGTT against C230071H18Rik”, the z-score is inactive: 1.07.

On to CCAUCCUUCCGAAAGACGATT against Lcn10, for which the z-score was inactive: 0.465.

Consider GCCGGUUGUAGAAAGGAGUTT against Frs2, for which the z-score was inactive: 0.354.

Turning to GGAGAUAUGACCAUCUCCUTT against Olfr798, the z-score is inactive: 1.47.

Regarding GGCUAUCACCUCCAACACCTT against Fkbp8, the z-score was inactive: -1.04.

For CGGUCUGUUCCUAAUAAAUTT against Faim2, the z-score is inactive: -1.78.

In the case of GGGAGAUCAUGAUAGCAGCTT against Cox5b, the z-score is inactive: -0.828.

With CGGGAAGCAUAUUAUCUAUTT against Zfp770, the z-score is inactive: -0.25.

As to GGCUAGAAAACCUCUAUCUTT against Lrrc18, the z-score is active: -2.11.

In the case of “GGACUGAGAGGGAUGGUAATT against A530016L24Rik”, the z-score was inactive: 0.293.

Turning to GGGCAACAAGGAGUACUCATT against Prss45, the z-score was inactive: -1.88.
